{"source": "PubChem BioAssay AID1259308 (NCATS, 2017)", "aim": "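Candidate targets for better recombinant protein yield in mammalian cells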 (primary screen)", "system": "human HEK293 embryonic kidney cells stably expressing firefly luciferase (HEK-CMV-Luc2-Hygro)", "reagent": "single siRNA against human genes, 0.8 pmol siRNA per well", "timing": "72 h", "read-out": "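Luciferase light (ONE-Glo) measured on one replicate plate set and viability (CellTiter-Glo) on the other, scaled to a negative control siRNA, with robust z-scores and luciferase per cell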", "reading the numbers": "total luciferase, z-score: higher = more reporter protein produced", "rule for the call": "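Active when the median/MAD z-score for overall luciferase is greater than 3; a gene was taken forward for validation with new siRNAs if at least two of its three siRNAs passed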", "meaning of the calls": "active = raised luciferase; inactive = no rise", "note": "This is an unselected part of about 59,000 reagents. In the full data, about 1,510 (2.6%) were called active. 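Calls use total luciferase alone and ignore viability, so some active siRNAs may act by altering cell number.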 Reagents against one gene are numbered here. Not all columns of the deposit are shown."}
{"gene knocked down": "GARIN5A (golgi associated RAB2 interactor 5A)", "reagent no.": 1, "total luciferase, z-score": -1.03, "activity call": "inactive"}
{"gene knocked down": "GARIN5A (golgi associated RAB2 interactor 5A)", "reagent no.": 2, "total luciferase, z-score": 0.824, "activity call": "inactive"}
{"gene knocked down": "GARIN5A (golgi associated RAB2 interactor 5A)", "reagent no.": 3, "total luciferase, z-score": 1.28, "activity call": "inactive"}
{"gene knocked down": "THRB-AS1 (THRB antisense RNA 1)", "reagent no.": 1, "total luciferase, z-score": -1.88, "activity call": "inactive"}
{"gene knocked down": "THRB-AS1 (THRB antisense RNA 1)", "reagent no.": 2, "total luciferase, z-score": 0.594, "activity call": "inactive"}
{"gene knocked down": "THRB-AS1 (THRB antisense RNA 1)", "reagent no.": 3, "total luciferase, z-score": 1.68, "activity call": "inactive"}
{"gene knocked down": "UQCRH (ubiquinol-cytochrome c reductase hinge protein)", "reagent no.": 1, "total luciferase, z-score": -0.537, "activity call": "inactive"}
{"gene knocked down": "UQCRH (ubiquinol-cytochrome c reductase hinge protein)", "reagent no.": 2, "total luciferase, z-score": -0.226, "activity call": "inactive"}
{"gene knocked down": "UQCRH (ubiquinol-cytochrome c reductase hinge protein)", "reagent no.": 3, "total luciferase, z-score": 0.145, "activity call": "inactive"}
{"gene knocked down": "LOC400576 (retired record)", "reagent no.": 1, "total luciferase, z-score": -0.78, "activity call": "inactive"}
{"gene knocked down": "LOC400576 (retired record)", "reagent no.": 2, "total luciferase, z-score": -0.682, "activity call": "inactive"}
{"gene knocked down": "LOC400576 (retired record)", "reagent no.": 3, "total luciferase, z-score": 3.94, "activity call": "active"}

Continued, starting with the last 2 of the part before.
{"gene knocked down": "LOC400576 (retired record)", "reagent no.": 2, "total luciferase, z-score": -0.682, "activity call": "inactive"}
{"gene knocked down": "LOC400576 (retired record)", "reagent no.": 3, "total luciferase, z-score": 3.94, "activity call": "active"}
{"gene knocked down": "SUPT20HL2 (SUPT20H like 2)", "reagent no.": 1, "total luciferase, z-score": 1.84, "activity call": "inactive"}
{"gene knocked down": "SUPT20HL2 (SUPT20H like 2)", "reagent no.": 2, "total luciferase, z-score": -2.15, "activity call": "inactive"}
{"gene knocked down": "SUPT20HL2 (SUPT20H like 2)", "reagent no.": 3, "total luciferase, z-score": -0.52, "activity call": "inactive"}
{"gene knocked down": "USP51 (ubiquitin specific peptidase 51)", "reagent no.": 1, "total luciferase, z-score": 0.302, "activity call": "inactive"}
{"gene knocked down": "USP51 (ubiquitin specific peptidase 51)", "reagent no.": 2, "total luciferase, z-score": -1.84, "activity call": "inactive"}
{"gene knocked down": "USP51 (ubiquitin specific peptidase 51)", "reagent no.": 3, "total luciferase, z-score": -2.15, "activity call": "inactive"}
{"gene knocked down": "FCSK (fucose kinase)", "reagent no.": 1, "total luciferase, z-score": 5.76, "activity call": "active"}
{"gene knocked down": "FCSK (fucose kinase)", "reagent no.": 2, "total luciferase, z-score": 0.883, "activity call": "inactive"}
{"gene knocked down": "FCSK (fucose kinase)", "reagent no.": 3, "total luciferase, z-score": 1.02, "activity call": "inactive"}
